Assay results from patent US20230399408A1 (AB THERAPEUTICS, published 2023).
Results are given in words; binding and its absence hold for the method and conditions named. Some results given as binding are weak or reduced against the parent protein; the word gives no strength.

Sequences of proteins named here, by UniProt entry; tags and fusion partners are left off. Residues count along the entry.
UniProt P08581, residues 25-932: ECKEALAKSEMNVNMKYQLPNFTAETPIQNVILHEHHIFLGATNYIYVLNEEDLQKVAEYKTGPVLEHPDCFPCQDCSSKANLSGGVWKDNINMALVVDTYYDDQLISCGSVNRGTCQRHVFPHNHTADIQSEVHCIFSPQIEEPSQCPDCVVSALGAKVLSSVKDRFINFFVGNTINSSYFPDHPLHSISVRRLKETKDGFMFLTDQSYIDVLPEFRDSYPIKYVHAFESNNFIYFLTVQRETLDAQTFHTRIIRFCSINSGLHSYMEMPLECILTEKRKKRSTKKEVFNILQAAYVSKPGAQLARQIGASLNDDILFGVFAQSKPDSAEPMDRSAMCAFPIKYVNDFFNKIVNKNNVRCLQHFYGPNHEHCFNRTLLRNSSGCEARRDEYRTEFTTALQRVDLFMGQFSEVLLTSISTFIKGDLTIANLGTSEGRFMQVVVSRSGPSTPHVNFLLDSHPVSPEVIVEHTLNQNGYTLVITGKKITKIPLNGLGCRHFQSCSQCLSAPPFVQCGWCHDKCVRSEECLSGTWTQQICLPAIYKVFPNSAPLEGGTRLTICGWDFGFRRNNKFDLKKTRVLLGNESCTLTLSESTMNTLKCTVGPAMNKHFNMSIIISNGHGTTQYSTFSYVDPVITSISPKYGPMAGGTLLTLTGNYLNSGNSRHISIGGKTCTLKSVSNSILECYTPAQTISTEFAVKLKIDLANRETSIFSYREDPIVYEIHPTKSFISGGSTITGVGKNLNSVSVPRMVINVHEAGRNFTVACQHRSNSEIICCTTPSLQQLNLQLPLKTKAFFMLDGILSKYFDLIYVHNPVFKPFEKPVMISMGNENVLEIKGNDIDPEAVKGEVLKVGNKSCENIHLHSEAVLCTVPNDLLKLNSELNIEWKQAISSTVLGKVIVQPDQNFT
UniProt P14210, residues 32-728: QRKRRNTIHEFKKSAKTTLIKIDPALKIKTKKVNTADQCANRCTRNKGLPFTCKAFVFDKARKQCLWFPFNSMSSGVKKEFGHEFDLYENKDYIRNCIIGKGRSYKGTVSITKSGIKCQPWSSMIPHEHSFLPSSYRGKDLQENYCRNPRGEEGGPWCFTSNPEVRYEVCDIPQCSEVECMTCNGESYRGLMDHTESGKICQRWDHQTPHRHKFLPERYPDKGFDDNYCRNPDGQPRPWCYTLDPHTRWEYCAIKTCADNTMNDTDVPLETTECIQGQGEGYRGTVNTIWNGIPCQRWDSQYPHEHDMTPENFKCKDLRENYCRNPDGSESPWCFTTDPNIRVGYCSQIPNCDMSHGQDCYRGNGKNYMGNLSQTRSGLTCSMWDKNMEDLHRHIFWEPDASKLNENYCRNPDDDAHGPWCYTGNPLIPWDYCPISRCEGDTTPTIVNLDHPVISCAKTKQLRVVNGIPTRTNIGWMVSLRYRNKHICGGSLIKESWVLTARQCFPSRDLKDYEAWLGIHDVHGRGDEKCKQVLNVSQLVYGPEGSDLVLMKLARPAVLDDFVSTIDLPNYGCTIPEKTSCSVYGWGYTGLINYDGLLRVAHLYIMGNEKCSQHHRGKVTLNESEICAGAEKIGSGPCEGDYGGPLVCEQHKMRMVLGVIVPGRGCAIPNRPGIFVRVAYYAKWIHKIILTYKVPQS

Target: c-MET-Fc tag protein (UniProt P08581)
Assay: ELISA on coated c-MET-Fc tag protein (4 ug/ml), biotinylated Hu-HGF 5 nM, streptavidin-HRP

binding: binds
Substance: biotinylated Hu-HGF protein (from UniProt P14210 32-728) (ligand)
